Results from the supplement of paper PMC12282887.
Values are raw readings; no control value is given beside them.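 Maximum concentrations were near the MIC for antimicrobials, 500 µM for most other compounds, and as high as 1 mM for known inducer-like compounds. Deletion strains began with a tenfold smaller inoculum, and wells with growth under 10% of the overall median counted as non-growing.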

Tested on: Escherichia coli BW25113
Experiment: growth (OD600 area under curve, 8 h) (OD600 x h); higher = more growth
Experimental: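 E. coli BW25113 reporter strains (wild type, ΔmarA, ΔsoxS, Δrob, each carrying one of 8 lux reporter plasmids) were grown in 40 µl LB in 384-well plates at 37°C, 800 rpm, with each compound at 4 two-fold concentrations, in biological duplicates. Growth is the baseline-corrected OD600 area under the curve over 8 h (0-8 h WT, 1-9 h deletion strains).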

O=C(O)c1ccccc1O [Salicylate]
growth
Conditions	reporter plasmid: EVC	reporter plasmid: acrABp	reporter plasmid: marRABp	reporter plasmid: micFp	reporter plasmid: ompFp	reporter plasmid: robp	reporter plasmid: soxSp	reporter plasmid: tolCp
17.3 µg/ml, genetic background: wild type	3.25	3.05	3.386	2.99	3.34	3.447	3.05	3.08
17.3 µg/ml, genetic background: ΔmarA	3.24	3.99	3.64	3.36	3.75	3.97	2.88	2.85
17.3 µg/ml, genetic background: Δrob	3.2	3.27	3.42	2.96	2.96	2.9	2.85	2.95
17.3 µg/ml, genetic background: ΔsoxS	3.44	3.4	3.42	3.05	3.27	3.66	3.49	3.42
34.5 µg/ml, genetic background: wild type	3.17	3.1	3.395	3.08	3.2	3.52	3.05	3.12
34.5 µg/ml, genetic background: ΔmarA	3	4.31	3.73	3.31	3.89	4.04	2.74	2.9
34.5 µg/ml, genetic background: Δrob	3.11	2.8	3.33	3.03	2.8	2.87	2.69	3.08
34.5 µg/ml, genetic background: ΔsoxS	3.42	3.34	3.12	3.09	3.146	3.3	3.28	3.46
69.1 µg/ml, genetic background: wild type	3.23	3.08	3.35	3.11	3.34	3.583	2.98	3.26
69.1 µg/ml, genetic background: ΔmarA	3.14	4.1	3.74	3.38	3.94	4.12	3.11	3
69.1 µg/ml, genetic background: Δrob	3.14	3.225	3.54	3.03	2.9	3.07	2.64	3.29
69.1 µg/ml, genetic background: ΔsoxS	3.35	3.63	3.52	2.977	3.38	3.65	3.12	3.32
138.1 µg/ml, genetic background: wild type	2.933	2.4	2.48	2.61	2.79	3.06	2.61	2.91
138.1 µg/ml, genetic background: ΔmarA	2.89	3.37	2.4	2.8	3.14	3.72	2.25	2.63
138.1 µg/ml, genetic background: Δrob	2.81	2.73	2.57	2.55	2.07	2.06	2.52	3.145
138.1 µg/ml, genetic background: ΔsoxS	3.22	2.52	2.34	2.3408	2.27	2.52	2.75	3.28
